Experimental data taken from patent publication US10883963B2, “Electrochemical measurement using phenylenediamine derivative” (SEIKAGAKU CORPORATION, priority 2016, dated 2021).

Test system: Limulus reagent Endospecy ES-24S
Test: Limulus test (2): endotoxin measurement by voltammetric method using labeled substrates
Type: biochemical
Protocol: Limulus tests using the substrates for measurement acquired in <Reference Example 1> described above were performed, and measurements of endotoxin were performed by a voltammetric method. The test procedures are shown below.
The same conditions as those described in <Limulus Reaction> of <Example 2> described above were applied except that a cyclic voltammetric measurement was performed instead of the chronoamperometric measurement.
The same conditions as described in <Measurement Conditions> of <Example 1> above were applied.

Row | Compound | Measured value B/Measured value A (%)
1 | CN(C)c1ccc(N)cc1 [DMPD, N, N-dimethyl-p-phenylenediamine] | 34
2 | CNc1ccc(N)cc1 [MPDD, N-methyl-p-phenylenediamine] | 55
3 | COc1ccc(N)cc1 [pMA, para methoxyaniline] | 19
